# Test results from article doi:10.1101/2022.09.10.507391.
# The chains behind the UniProt entries cited, without tags or fusion partners. Where a name states a change or a piece, a line headed by the entry shows the natural chain unless it says otherwise.
# UniProt A0A0H3C9I3: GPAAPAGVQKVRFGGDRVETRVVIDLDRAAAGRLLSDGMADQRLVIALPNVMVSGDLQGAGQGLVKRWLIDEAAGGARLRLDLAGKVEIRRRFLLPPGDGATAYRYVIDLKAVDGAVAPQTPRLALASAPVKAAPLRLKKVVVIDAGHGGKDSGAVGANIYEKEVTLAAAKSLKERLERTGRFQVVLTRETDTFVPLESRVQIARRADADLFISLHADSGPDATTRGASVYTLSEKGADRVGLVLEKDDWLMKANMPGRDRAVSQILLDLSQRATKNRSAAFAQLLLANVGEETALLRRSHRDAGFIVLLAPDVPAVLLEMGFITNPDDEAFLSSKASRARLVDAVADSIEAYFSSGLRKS
# UniProt B8GX61: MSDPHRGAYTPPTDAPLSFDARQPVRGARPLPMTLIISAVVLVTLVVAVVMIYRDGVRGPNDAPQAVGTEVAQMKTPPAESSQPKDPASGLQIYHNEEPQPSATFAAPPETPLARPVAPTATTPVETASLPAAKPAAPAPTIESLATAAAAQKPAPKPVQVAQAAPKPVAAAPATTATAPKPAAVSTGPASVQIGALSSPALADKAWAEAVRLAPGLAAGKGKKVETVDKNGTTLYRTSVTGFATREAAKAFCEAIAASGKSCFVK
# These are yes or no findings as the source states them, for the method shown. Binding seen in cells or lysates may run through a third protein. A yes stands for co-enrichment or nearness to the bait. Other partners may have been found.
# Target: DipM-FLAG (C. crescentus)
# Experiment: affinity purification with mass spectrometry
row,Substance,binding
1,AmiC (from UniProt A0A0H3C9I3) (enzyme),binds
2,SdpA (from UniProt A0A0H3C7P1) (enzyme),binds
3,FtsN (from UniProt B8GX61),binds
